Library screening results

Measurements from “University of Dundee, Small-Polar-MMV Screening Library” (2021), ChEMBL document CHEMBL3988442.

The filed quantity is “Percent Effect” (%). The controls that fix the scale are not given in the record; negative values are as filed. Compounds were drawn at random from those tested, without regard to their results. Two or more numbers in one place are separate tests of the same structure; such repeats can differ widely.

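Viability assay of Plasmodium falciparum sporozoites; the read-out is not stated. The concentration is filed as 10 mM, unlikely as a test dose, so the dose is not known. Direction is inferred from retests: higher values go with lower viability. Strong results were mostly tested again. Size under these conditions: about 34,000 compounds, about 280 of them at 50% or above in at least one test.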

With CS(=O)(=O)N[C@@H]1CN(C(=O)c2cc3ccccc3s2)C[C@H]1O the screen gave 7.306%.
With NCCc1n[nH]c(=O)n1-c1cccc(Cl)c1Cl the screen gave -11.85%.
With Cc1cc(C(=O)NCc2ccccn2)no1 the screen gave -7.04%.
With CCN(CC)S(=O)(=O)N1CCCC(c2ncc3c(n2)CCN(C)C3)C1 (stereo not drawn) the screen gave 9.304%.
With CSC(C)(C)CNC(=O)NC1CCC1 the screen gave -12.01%.
With O=C(c1ccncc1)N1CCC(Cc2cnc3[nH]ccc3c2)CC1 the screen gave 3.131%.
With Cn1ccnc1CN1CCC(CNS(=O)(=O)c2cccnc2)C1 (stereo not drawn) the screen gave -4.615%.
With Cc1nn(C)c(C)c1C1CCCN1Cc1nc(C2CC2)no1 (stereo not drawn) the screen gave 27.72% & 17.46% & 19.46%.
With Cc1ccc(CN2Cc3c(C(=O)N(C)C)nn(C)c3C2)s1.O=C(O)C(F)(F)F the screen gave -11.88%.
With CN1CCC(c2cncc(C(=O)NCc3ccc(F)cc3)n2)CC1 the screen gave 7.805%.
With CCc1ccc(C(=O)N2CCN(CC(O)CC)CC2)o1 (stereo not drawn) the screen gave 23.02%.
With Cc1nn(CCO)c(C)c1CN1CCN(C2CCCCC2)C(=O)C1 the screen gave -6.807%.
With O=C(O)C(F)(F)F.O=C(O)C(F)(F)F.[H][C@]12CCN(CC3CCOCC3)[C@@]1([H])CCC(COCc1cccnc1)O2 (stereo partly drawn) the screen gave 2.344%.
With CC(Cn1cccn1)NCc1nc(-c2ccsc2)no1 (stereo not drawn) the screen gave -4.039%.
With O=C(Cc1cccc(F)c1)NCCNCc1cccnc1 the screen gave 0.3253%.
With COc1ncccc1CNC(=O)c1cnc(C)cn1 the screen gave 21.78%.
With Cc1nc(C2(O)CCCNCC2)sc1CCOc1ccc(F)c(F)c1.Cl (stereo not drawn) the screen gave 15.27%.
With C[C@@H]1CN(Cc2ccoc2)C[C@]12CCN(CC(=O)N(C)C)C2=O.O=C(O)C(F)(F)F the screen gave 6.918%.
With Cn1cccc1C(=O)N1CCCC2(CCCN2Cc2cccnc2)C1 (stereo not drawn) the screen gave -1.678%.
With CN(Cc1cccs1)C(=O)CN1C(=O)c2cc(Cl)c(Cl)cc2C1=O the screen gave 3.022%.
With O=C(O)C(F)(F)F.[H][C@]12CCC[C@@]1(COc1ccccn1)CN(S(=O)(=O)CC)C2 the screen gave -8.553%.
With Cc1[nH]nc2ncc(C(=O)N3CCN(CCC(C)C)CC3)cc12 the screen gave -1.167%.
With Cn1cc(-c2cc(C(F)F)n3nc(CCC(=O)O)nc3n2)cn1 the screen gave 7.943%.
With CC(=O)N1C[C@H](c2cc(O)nc(C)n2)[C@@H](c2ccccc2F)C1 the screen gave -6.27%.
With Cc1c(F)cc(C(=O)O)cc1S(=O)(=O)Nc1ccc(C#N)cc1 the screen gave 4.07%.
With O=C(O)C(F)(F)F.[H][C@@]12COC[C@]1(C(=O)NC1CC(F)(F)C1)CN(Cc1scnc1C)C2 the screen gave 12.35%.
With Cc1cc(N2CCC(c3n[nH]c4nccnc34)C2)ncn1 (stereo not drawn) the screen gave 9.769%.
With c1cnnc(N2CCCC2CNCc2cnc(N3CCCC3)nc2)c1 (stereo not drawn) the screen gave -29.12%.
With CN(C)C(=O)C1CCC2(CCN(Cc3ccc4ccccc4n3)CC2)O1 (stereo not drawn) the screen gave -4.641%.
With CC(=O)Nc1nc(C2CCN(C(C)C)CC2)cs1 the screen gave -779.3%.
With CNC(=O)CN1CCC12CCN(C(=O)Cc1ccccc1)C2.O=C(O)C(F)(F)F (stereo not drawn) the screen gave 4.875%.
With [H][C@@]12CCN(Cc3nccs3)[C@]1([H])CC[C@H](C(=O)NCC1CC1)O2 the screen gave -1.491%.

Once more, the final 4:

- CN(C)C(=O)C1CCC2(CCN(Cc3ccc4ccccc4n3)CC2)O1 (stereo not drawn) : -4.641%
- CC(=O)Nc1nc(C2CCN(C(C)C)CC2)cs1 : -779.3%
- CNC(=O)CN1CCC12CCN(C(=O)Cc1ccccc1)C2.O=C(O)C(F)(F)F (stereo not drawn) : 4.875%
- [H][C@@]12CCN(Cc3nccs3)[C@]1([H])CC[C@H](C(=O)NCC1CC1)O2 : -1.491%